What all share (assay): glycan array binding signal (z-score within array); higher = stronger binding
What all share (settings): glycan notation: IUPAC condensed, linker removed

Assay [1] addresses Gal(b1-4)GlcNAc(b1-2)Man(a1-6)[GlcNAc(b1-2)Man(a1-3)]Man(b1-4)GlcNAc(b1-4)GlcNAc. A digest of the protocol: (§1)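 Arrays were curated from the Consortium for Functional Glycomics database, 3228 in total, and kept only where the protein sequence was available. Binding is expressed as a within-array Z-score. This score was averaged across arrays of the same protein sequence at different concentrations or buffers and across linkers, and negative values can be read as non-binding.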

The target of assay [2] is Gal(b1-4)GlcNAc(b1-2)Man(a1-6)[Man(a1-3)]Man(b1-4)GlcNAc(b1-4)GlcNAc. A digest of the protocol: as §1
In assay [3] the target is Gal(b1-4)GlcNAc(b1-2)[Gal(b1-4)GlcNAc(b1-4)]Man(a1-3)[Gal(b1-4)GlcNAc(b1-2)Man(a1-6)]Man(b1-4)GlcNAc(b1-4)GlcNAc. A digest of the protocol:
as §1

The target in assay [4] is Gal(b1-4)GlcNAc(b1-2)[Gal(b1-4)GlcNAc(b1-4)]Man(a1-3)[Gal(b1-4)GlcNAc(b1-2)[Gal(b1-4)GlcNAc(b1-6)]Man(a1-6)]Man(b1-4)GlcNAc(b1-4)GlcNAc. A digest of the protocol:
as §1

Assay [5] has as its target Gal(b1-4)GlcNAc(b1-2)[Gal(b1-4)GlcNAc(b1-4)]Man(a1-3)[GlcNAc(b1-4)][Gal(b1-4)GlcNAc(b1-2)Man(a1-6)]Man(b1-4)GlcNAc(b1-4)GlcNAc. The essentials:
as §1

Assay [6] concerns the target Gal(b1-4)GlcNAc(b1-2)[Gal(b1-4)GlcNAc(b1-4)]Man(a1-3)[GlcNAc(b1-4)][Gal(b1-4)GlcNAc(b1-2)[Gal(b1-4)GlcNAc(b1-6)]Man(a1-6)]Man(b1-4)GlcNAc(b1-4)GlcNAc. The essentials: as §1
The target of assay [7] is Gal(b1-4)GlcNAc(b1-2)[Gal(b1-4)GlcNAc(b1-6)]Man(a1-6)[Gal(b1-4)GlcNAc(b1-2)Man(a1-3)]Man(b1-4)GlcNAc(b1-4)GlcNAc. The essentials:
as §1

The target of assay [8] is Gal(b1-4)GlcNAc(b1-2)[Gal(b1-4)GlcNAc(b1-6)]Man(a1-6)[Gal(b1-4)GlcNAc(b1-2)Man(a1-3)]Man(b1-4)GlcNAc(b1-4)[Fuc(a1-6)]GlcNAc. A digest of the protocol:
as §1

Assay [9] concerns the target Gal(b1-4)GlcNAc(b1-2)[Gal(b1-4)GlcNAc(b1-6)]Man(a1-6)[GlcNAc(b1-4)][Gal(b1-4)GlcNAc(b1-2)Man(a1-3)]Man(b1-4)GlcNAc(b1-4)GlcNAc. The essentials: as §1
Assay [10] addresses Gal(b1-4)GlcNAc(b1-2)[Gal(b1-4)GlcNAc(b1-6)]Man(a1-6)[GlcNAc(b1-4)][Gal(b1-4)GlcNAc(b1-2)[Gal(b1-4)GlcNAc(b1-4)]Man(a1-3)]Man(b1-4)GlcNAc(b1-4)[Fuc(a1-6)]GlcNAc. The essentials: as §1
The target in assay [11] is Gal(b1-4)GlcNAc(b1-3)Gal(b1-3)GalNAc. The essentials: as §1
Assay [12] concerns the target Gal(b1-4)GlcNAc(b1-3)Gal(b1-3)GlcNAc. A digest of the protocol: as §1
In assay [13] the target is Gal(b1-4)GlcNAc(b1-3)Gal(b1-4)Glc. The essentials:
as §1

Assay [14] addresses Gal(b1-4)GlcNAc(b1-3)Gal(b1-4)GlcNAc. The essentials:
as §1

For assay [15], the target named is Gal(b1-4)GlcNAc(b1-3)Gal(b1-4)GlcNAc(b1-2)Man(a1-3)[Gal(b1-4)GlcNAc(b1-3)Gal(b1-4)GlcNAc(b1-2)Man(a1-6)]Man(b1-4)GlcNAc(b1-4)GlcNAc. The essentials: as §1
Assay [16] deals with Gal(b1-4)GlcNAc(b1-3)Gal(b1-4)GlcNAc(b1-2)Man(a1-3)[Gal(b1-4)GlcNAc(b1-3)Gal(b1-4)GlcNAc(b1-2)Man(a1-6)]Man(b1-4)GlcNAc(b1-4)[Fuc(a1-6)]GlcNAc. A digest of the protocol:
as §1

Assay [17] addresses Gal(b1-4)GlcNAc(b1-3)Gal(b1-4)GlcNAc(b1-2)[Gal(b1-4)GlcNAc(b1-3)Gal(b1-4)GlcNAc(b1-6)]Man(a1-6)[Gal(b1-4)GlcNAc(b1-3)Gal(b1-4)GlcNAc(b1-2)Man(a1-3)]Man(b1-4)GlcNAc(b1-4)GlcNAc. The essentials:
as §1

Assay [18] deals with Gal(b1-4)GlcNAc(b1-3)Gal(b1-4)GlcNAc(b1-2)[Gal(b1-4)GlcNAc(b1-3)Gal(b1-4)GlcNAc(b1-6)]Man(a1-6)[Gal(b1-4)GlcNAc(b1-3)Gal(b1-4)GlcNAc(b1-2)Man(a1-3)]Man(b1-4)GlcNAc(b1-4)[Fuc(a1-6)]GlcNAc. The essentials: as §1

The other results are listed elsewhere or left out.

B1: HA-00510 (Pseudomonas aeruginosa), Q02V39_PSEAB (protein)
chain: GVPIVNIATPNGAGLSNNHFRDYNVGANGLILNNATGKTQGTQLGGIILGNPNLKGQAAQVILNQVTGGNRSTLAGYTEVAGQSARVIVANPHGITCQGCGFINTPRATLTTGKPIMDGQRLERFQVDGGDIVVEGAELNVGNLEQFDLITRSAKLNAKLYAKNLNIVTGRNDVQADSLQATPRAADGSEKPQLAIDSSALGGMYAGAIRLVGTEQGVGVKLAGDMAASGGDIRIDASGKLSLAQASSQGDLKIAAQAVELNGKTYAGGSAEIRSAEELVNRQS
With B1, the “glycan array binding signal (z-score)” value in assay [1] is 0.713; in assay [2], -0.04; in assay [3], 0.004; in assay [4], -0.079; in assay [5] it was -0.568; in assay [6] it was 0.347. The “glycan array binding signal (z-score)” value was -0.521 in assay [7]; -0.013 in assay [8]; -0.798 in [9]; -0.09 in assay [10]; -0.452 in [11]; 0.515 in assay [12]. Further, the “glycan array binding signal (z-score)” value in assay [13] was 0.719; in [14], -0.63; in assay [15], 6.41; in assay [16] it was -0.448; in assay [17] it was 1.94; in [18], 0.995.

These data come from the supplement of paper PMC8728848.
